In this series the target is IDX-1 (native in RIN1027-B2 nuclear extract) (Rattus norvegicus) (UniProt P52947). The experiment in a line: EMSA. The following applies: protein in an extract, label: 32P.
Where [1] appears, read: complex disrupted by IDX-1 antiserum.
Setting [2] is: complexes disrupted by IDX-1 antiserum.

Amino acid sequences for entries named in this document (tags omitted). Chains listed by the source or under a name are the forms on record and can include a tag or linker.
UniProt P52947, other isoform, or with tags, fused parts or gaps: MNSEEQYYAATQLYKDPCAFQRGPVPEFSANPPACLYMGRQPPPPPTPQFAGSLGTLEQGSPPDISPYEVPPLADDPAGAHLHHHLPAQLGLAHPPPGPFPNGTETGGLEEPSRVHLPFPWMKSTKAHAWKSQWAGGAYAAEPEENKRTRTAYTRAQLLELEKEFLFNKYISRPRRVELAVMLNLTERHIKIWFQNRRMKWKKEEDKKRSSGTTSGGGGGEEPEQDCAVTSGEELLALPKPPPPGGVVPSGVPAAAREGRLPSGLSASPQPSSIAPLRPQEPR

At least one result comes from cells or an extract, where the contact may be indirect. Negatives hold for the conditions tested.

On to “GATCCAGGCAAGATTATTTGGTCA (double strand) [SMS-PS]”, for which the binding result (no bands perturbed by IDX-1 antiserum) is “no binding”.
As to “GATCCCTGATTGCATATTAATTCTCAGATA (double strand) [SMS-TAAT1]”, the binding result under setting [1] is “binds”.
In the case of “GATCCGATCTCAGTAATTAATCATGCACCA (double strand) [SMS-TAAT2]”, the binding result under setting [2] is recorded as “binds”.
As to “GATCCGCGAGGCTAATGGTGCGTAAAAGCACTGGTGA (double strand) [SMS-UE-B]”, the binding result under setting [1] is “binds”.
For the sequence “GATCCTTGTTAATCTAATTACCCTAGGTCTAA (double strand) [INS1-FLAT]”, the binding result under setting [2] was “binds”.

Source of the values: patent US5858973.
